The list does not hold the whole screen: it gathers tests that were run many times, whatever their T/C, doses with no T/C, and many T/C values between a quarter and a half above the control. Other doses and runs of a compound stand elsewhere. T/C gives the treated animals as a percentage of the vehicle group. Some entries give survivors of the animals treated and no T/C: the source holds a T/C of zero for them, seemingly a mark for toxic or unscored doses. Some survivor counts are full or nearly so, which does not show that the dose was tolerated: the source hardly ever lists a survival T/C far under the control, and the zero likely stands for such cases as well. Survivors were counted at the toxicity check, usually on the fifth day, unless a day is given; later deaths do not show. Schedule codes are those of the source, read here as Q, the interval in days (D) or hours (H), X, the number of doses. Some molecules as drawn cover several salts, stereoisomers or complexes of the source; a dose is that of the sample tested. Some entries were tested several times; the results are listed from low to high. Where survival is the endpoint, this PubChem deposit counts one and a half times the control or more as active, and values a quarter to a half above the control carry no call in these data; other NCI protocols may use other cut-offs. Some T/C values are followed by the survivors on the day toxicity was checked, most often the fifth; without a count, all were alive then.
Tested on: BDF1 mice, B16 melanoma s.c., survival/tumor T/C
Experiment: NCI In Vivo Anticancer Drug Screen. Data for tumor model B16 Melanoma (subcutaneous) in B6D2F1 (BDF1) mice
Details: T/C endpoint: median survival time, higher T/C = longer survival
Description: The antitumor activity of compounds was measured in mice bearing transplantable tumors. Survival or tumor size were measured and the results are expressed as the measurement made in the treated group (T) divided by the measurement made in the vehicle treated control group (C). The tumor model used in this assay is B16 Melanoma (subcutaneous) in B6D2F1 (BDF1) mice

[1] = dose: 32.0 mg/kg/injection, schedule: Q01DX009 (ip), vehicle: saline
[2] = dose: 64.0 mg/kg/injection, schedule: Q02DX009 (ip), vehicle: saline
[3] = dose: 200.0 mg/kg/injection, schedule: Q04DX003 (ip), vehicle: saline
[4] = dose: 400.0 mg/kg/injection, schedule: Q04DX003 (ip), vehicle: saline

NC(C/[N+]([O-])=N/O)C(=O)O (stereo unspecified)
T/C (dose: 19.8 mg/kg/injection, schedule: Q01DX010 (ip), vehicle: alkali diluted with saline, evaluated on day 58): 141 % of control | T/C (dose: 19.8 mg/kg/injection, schedule: Q01DX010 (ip), vehicle: alkali diluted with saline, evaluated on day 90): 148 % of control | survivor count (dose: 60.0 mg/kg/injection, schedule: Q01DX009 (ip), vehicle: Klucel (hydroxypropylcellulose) (HPC)): 9 of 10 | survivor count (dose: 66.7 mg/kg/injection, schedule: Q01DX010 (ip), vehicle: alkali diluted with saline): 6 of 10 on day 58 | survivor count (dose: 90.0 mg/kg/injection, schedule: Q01DX009 (ip), vehicle: Klucel (hydroxypropylcellulose) (HPC)): 10 of 10 | survivor count (dose: 100.0 mg/kg/injection, schedule: Q01DX010 (ip), vehicle: alkali diluted with saline): 2 of 10 on day 58 and 10 of 10 | survivor count (dose: 200.0 mg/kg/injection, schedule: Q04DX003 (ip), vehicle: Klucel (hydroxypropylcellulose) (HPC)): 10 of 10 | survivor count (dose: 450.0 mg/kg/injection, schedule: Q04DX003 (ip), vehicle: Klucel (hydroxypropylcellulose) (HPC)): 10 of 10 | survivor count (dose: 750.0 mg/kg/injection, schedule: Q01DX001 (ip), vehicle: Klucel (hydroxypropylcellulose) (HPC)): 6 of 10

COc1ccc(C[C@H](N)C(=O)NC2C(CO)OC(n3cnc4c(N(C)C)ncnc43)C2O)cc1 (stereo partly specified)
T/C (dose: 8.0 mg/kg/injection, schedule: Q01DX009 (ip), vehicle: saline): 137 % of control | T/C (dose: 16.0 mg/kg/injection, schedule: Q01DX009 (ip), vehicle: saline): 148 % of control | survivor count [1]: 5 of 5 | survivor count (dose: 128.0 mg/kg/injection, schedule: Q01DX009 (ip), vehicle: saline): 3 of 5 and 5 of 5 | survivor count (dose: 256.0 mg/kg/injection, schedule: Q01DX009 (ip), vehicle: saline): 0 of 5

O=C1c2ccccc2C(=O)c2c(NCCNCCO)ccc(NCCNCCO)c21
T/C (dose: 0.5 mg/kg/injection, schedule: Q01DX009 (ip), vehicle: saline): 127 % of control | T/C (dose: 2.0 mg/kg/injection, schedule: Q02DX009 (ip), vehicle: saline): 138 % of control | survivor count (dose: 4.0 mg/kg/injection, schedule: Q02DX009 (ip), vehicle: Klucel (hydroxypropylcellulose) (HPC)): 10 of 10 | survivor count (dose: 4.0 mg/kg/injection, schedule: Q02DX009 (ip), vehicle: water): 10 of 10 | survivor count (dose: 8.0 mg/kg/injection, schedule: Q02DX009 (ip), vehicle: Klucel (hydroxypropylcellulose) (HPC)): 10 of 10 | survivor count (dose: 8.0 mg/kg/injection, schedule: Q02DX009 (ip), vehicle: water): 10 of 10 | survivor count (dose: 16.0 mg/kg/injection, schedule: Q02DX009 (ip), vehicle: Klucel (hydroxypropylcellulose) (HPC)): 10 of 10 | survivor count (dose: 16.0 mg/kg/injection, schedule: Q02DX009 (ip), vehicle: saline): 10 of 10 | survivor count (dose: 20.0 mg/kg/injection, schedule: Q01DX009 (ip), vehicle: Klucel (hydroxypropylcellulose) (HPC)): 10 of 10 | survivor count (dose: 30.0 mg/kg/injection, schedule: Q01DX009 (ip), vehicle: Klucel (hydroxypropylcellulose) (HPC)): 10 of 10 | survivor count (dose: 32.0 mg/kg/injection, schedule: Q01DX009 (ip), vehicle: Klucel (hydroxypropylcellulose) (HPC)): 10 of 10 | survivor count [1]: 10 of 10 | survivor count (dose: 32.0 mg/kg/injection, schedule: Q02DX009 (ip), vehicle: Klucel (hydroxypropylcellulose) (HPC)): 10 of 10 | survivor count (dose: 32.0 mg/kg/injection, schedule: Q02DX009 (ip), vehicle: saline): 10 of 10 | survivor count (dose: 32.0 mg/kg/injection, schedule: Q02DX009 (ip), vehicle: water): 10 of 10 | survivor count (dose: 64.0 mg/kg/injection, schedule: Q01DX009 (ip), vehicle: saline): 6 of 10 | survivor count (dose: 64.0 mg/kg/injection, schedule: Q02DX009 (ip), vehicle: Klucel (hydroxypropylcellulose) (HPC)): 10 of 10 | survivor count [2]: 9 of 10 | survivor count (dose: 64.0 mg/kg/injection, schedule: Q02DX009 (ip), vehicle: water): 10 of 10 | survivor count (dose: 64.0 mg/kg/injection, schedule: Q04DX003 (ip), vehicle: Klucel (hydroxypropylcellulose) (HPC)): 9 of 9 | survivor count (dose: 110.0 mg/kg/injection, schedule: Q01DX001 (ip), vehicle: Klucel (hydroxypropylcellulose) (HPC)): 10 of 10 | survivor count (dose: 128.0 mg/kg/injection, schedule: Q02DX009 (ip), vehicle: Klucel (hydroxypropylcellulose) (HPC)): 8 of 10 and 9 of 10 | survivor count (dose: 128.0 mg/kg/injection, schedule: Q02DX009 (ip), vehicle: water): 4 of 10 and 7 of 10 | survivor count (dose: 165.0 mg/kg/injection, schedule: Q01DX001 (ip), vehicle: Klucel (hydroxypropylcellulose) (HPC)): 9 of 10 | survivor count (dose: 960.0 mg/kg/injection, schedule: Q04DX003 (ip), vehicle: Klucel (hydroxypropylcellulose) (HPC)): 10 of 10

COc1ccc(CCN2C(=O)CSC2=S)cc1OC
T/C (dose: 200.0 mg/kg/injection, schedule: Q01DX009 (ip), vehicle: Klucel (hydroxypropylcellulose) (HPC)): 136 % of control

Cc1cc(NC(=O)NCc2ccc(N3C(N)=NC(N)=NC3(C)C)cc2)ccc1S(=O)(=O)F
T/C (dose: 25.0 mg/kg/injection, schedule: Q04DX003 (ip), vehicle: saline): 125 % of control | T/C [3]: 147 % of control | survivor count [4]: 6 of 6

CC1(C)N=C(N)N=C(N)N1c1ccc(CCC(=O)Nc2ccc(S(=O)(=O)F)cc2)c(Cl)c1
T/C (dose: 50.0 mg/kg/injection, schedule: Q01DX009 (ip), vehicle: saline): 129 % of control

O=C1C=CC(=O)N1c1ccc(Cl)cc1
T/C (dose: 2.5 mg/kg/injection, schedule: Q01DX009 (ip), vehicle: Klucel (hydroxypropylcellulose) (HPC)): 132 % of control

O=c1n(CC2CO2)c(=O)n(CC2CO2)c(=O)n1CC1CO1 (stereo unspecified)
T/C (dose: 30.0 mg/kg/injection, schedule: Q01DX011 (ip), vehicle: saline): 136 % of control

C[CH2][Ge]1([CH2]C)[CH2]CC2(CCN(CCCN(C)C)C2)C[CH2]1
survivor count [2]: 10 of 10 | survivor count (dose: 128.0 mg/kg/injection, schedule: Q02DX009 (ip), vehicle: saline): 1 of 10

COC(=O)[C@@]12OC[C@]34[C@H]([C@@H](O)[C@@H]1O)[C@@]1(C)CC(=O)C(O)=C(C)[C@@H]1C[C@H]3OC(=O)[C@H](OC(=O)/C=C(\C)C(C)C)[C@@H]24
T/C (dose: 1.7 mg/kg/injection, schedule: Q01DX009 (ip), vehicle: saline with Tween-80): 133 % of control [9 of 10 alive] | survivor count (dose: 2.0 mg/kg/injection, schedule: Q01DX009 (ip), vehicle: saline with Tween-80): 7 of 10 | survivor count (dose: 2.6 mg/kg/injection, schedule: Q01DX009 (ip), vehicle: saline with Tween-80): 2 of 10 | survivor count (dose: 3.0 mg/kg/injection, schedule: Q01DX001 (ip), vehicle: saline with Tween-80): 6 of 10 | survivor count (dose: 3.0 mg/kg/injection, schedule: Q04DX003 (ip), vehicle: saline with Tween-80): 4 of 10 | survivor count (dose: 4.0 mg/kg/injection, schedule: Q01DX009 (ip), vehicle: saline with Tween-80): 0 of 10 | survivor count (dose: 4.5 mg/kg/injection, schedule: Q01DX001 (ip), vehicle: saline with Tween-80): 3 of 10 | survivor count (dose: 8.0 mg/kg/injection, schedule: Q01DX009 (ip), vehicle: saline with Tween-80): 0 of 10

CC1(C)N=C(N)N=C(N)N1c1ccc(OCc2ccc(C(=O)Nc3cccc(S(=O)(=O)F)c3)cc2)c(Cl)c1
T/C (dose: 50.0 mg/kg/injection, schedule: Q04DX003 (ip), vehicle: saline): 131 % of control | survivor count (dose: 100.0 mg/kg/injection, schedule: Q04DX003 (ip), vehicle: saline): 6 of 6 | survivor count [3]: 4 of 6 | survivor count [4]: 0 of 6

CCSC(=O)N1c2ccc(OC)cc2C=CC1C#N (stereo unspecified)
T/C (dose: 400.0 mg/kg/injection, schedule: Q01DX009 (ip), vehicle: saline with Tween-80): 139 % of control

Reference: PubChem BioAssay AID194 (DTP/NCI, 2004)
